According to PubChem BioAssay AID248 (DTP/NCI, 2004):
The list shows only some results of the screen, not a fair sample: it is rich in T/C values a quarter to a half above the control, in often repeated tests (any T/C) and in doses without a T/C. Further doses and runs are listed elsewhere. T/C: endpoint of the treated group in % of that of the vehicle group. Some doses have a count of surviving animals in place of a T/C: the source files T/C as zero there, which appears to mark a toxic dose or a test without result, not a measured value. Some doses without a T/C left all or most animals alive at the check, yet need not have been tolerated: survival well below the control is almost never listed, so the zero probably covers shortened survival too. Survivors were counted at the toxicity check, usually on the fifth day, unless a day is given; later deaths do not show. Schedule codes are those of the source, taken here to give the interval after Q, in days (D) or hours (H), and the number of doses after X. Some entries were tested several times; the results are listed from low to high. Some molecules as drawn cover several salts, stereoisomers or complexes of the source; a dose is that of the sample tested. For survival time, this PubChem deposit counts one and a half times the control or more as active, and values a quarter to a half above the control carry no call in these data; other NCI protocols may use other cut-offs. Some T/C values are followed by the survivors on the day toxicity was checked, most often the fifth; without a count, all were alive then.

System: L1210 leukemia ip in BDF1 mice, survival T/C
Experiment: NCI In Vivo Anticancer Drug Screen. Data for tumor model L1210 Leukemia (intraperitoneal) in B6D2F1 (BDF1) mice
Conditions: T/C endpoint: mean survival time, higher T/C = longer survival
[1] = dose: 200.0 mg/kg/injection, schedule: Q04DX003 (ip), vehicle: saline with Tween-80
[2] = dose: 400.0 mg/kg/injection, schedule: Q04DX003 (ip), vehicle: saline with Tween-80
[3] = dose: 200.0 mg/kg/injection, schedule: Q01DX009 (ip), vehicle: saline with Tween-80
[4] = dose: 400.0 mg/kg/injection, schedule: Q01DX001 (ip), vehicle: saline with Tween-80
[5] = dose: 100.0 mg/kg/injection, schedule: Q04DX002 (ip), vehicle: Klucel (hydroxypropylcellulose) (HPC)
[6] = dose: 200.0 mg/kg/injection, schedule: Q04DX002 (ip), vehicle: Klucel (hydroxypropylcellulose) (HPC)
[7] = dose: 400.0 mg/kg/injection, schedule: Q04DX002 (ip), vehicle: Klucel (hydroxypropylcellulose) (HPC)
[8] = dose: 100.0 mg/kg/injection, schedule: Q01DX009 (ip), vehicle: Klucel (hydroxypropylcellulose) (HPC)
[9] = dose: 200.0 mg/kg/injection, schedule: Q01DX009 (ip), vehicle: Klucel (hydroxypropylcellulose) (HPC)
[10] = dose: 400.0 mg/kg/injection, schedule: Q01DX009 (ip), vehicle: Klucel (hydroxypropylcellulose) (HPC)
[11] = dose: 300.0 mg/kg/injection, schedule: Q01DX001 (ip), vehicle: saline
[12] = dose: 400.0 mg/kg/injection, schedule: Q04DX003 (ip), vehicle: Klucel (hydroxypropylcellulose) (HPC)
[13] = dose: 100.0 mg/kg/injection, schedule: Q04DX002 (ip), vehicle: saline with Tween-80
[14] = dose: 400.0 mg/kg/injection, schedule: Q01DX001 (ip), vehicle: carboxymethylcellulose (CMC)

## O=C(c1c(F)c(F)c(F)c(F)c1F)N1CC1
dose: 100.0 mg/kg/injection, schedule: Q01DX009 (ip), vehicle: water
  survivor count: 3 of 6
dose: 200.0 mg/kg/injection, schedule: Q01DX009 (ip), vehicle: water
  survivor count: 1 of 6
dose: 400.0 mg/kg/injection, schedule: Q01DX009 (ip), vehicle: water
  survivor count: 0 of 6

## CC(C)CCC1=C(O)c2ccccc2C(=O)C1=O
dose: 70.0 mg/kg/injection, schedule: Q01DX015 (ip), vehicle: water
  survivor count: 3 of 6

## CC(=[N-])CC(C)=O.O=C(CC(=Nc1ccccc1)c1ccccc1)c1ccccc1.[Cu+]
dose: 100.0 mg/kg/injection, schedule: Q04DX003 (ip), vehicle: saline with Tween-80
  survivor count: 6 of 6
[1]
  survivor count: 2 of 6
[2]
  survivor count: 0 of 6

## ClP1(c2ccccc2)=NP(Cl)(c2ccccc2)=NP(Cl)(c2ccccc2)=NP(Cl)(c2ccccc2)=N1 (stereo not given)
[3]
  survivor count: 3 of 6

## CCCC(C)C(=O)OCP(=O)(COC(=O)C(C)CCC)COC(=O)C(C)CCC (stereo not given)
[4]
  survivor count: 6 of 6

## CNC(=N)c1ccc(NC(=N)c2ccc(NC(=N)c3ccc(NC(=O)Nc4ccc(C(=N)Nc5ccc(C(=N)Nc6ccc(C(=N)NC)cc6)cc5)cc4)cc3)cc2)cc1
dose: 8.0 mg/kg/injection, schedule: Q01DX015 (ip), vehicle: water
  T/C: 134 % of control
dose: 50.0 mg/kg/injection, schedule: Q01DX001 (ip), vehicle: water
  T/C: 131 % of control
dose: 63.0 mg/kg/injection, schedule: Q01DX015 (ip), vehicle: water
  T/C: 138 % of control [5 of 6 alive]

## CN1CC(C)(C)C(O)c2ccccc21 (stereo not given)
dose: 100.0 mg/kg/injection, schedule: Q04DX002 (ip), vehicle: other
  survivor count: 1 of 3
dose: 200.0 mg/kg/injection, schedule: Q04DX002 (ip), vehicle: other
  survivor count: 1 of 3
dose: 400.0 mg/kg/injection, schedule: Q04DX002 (ip), vehicle: other
  survivor count: 0 of 3

## O=C(C=P(c1ccccc1)(c1ccccc1)c1ccccc1)CCl
dose: 50.0 mg/kg/injection, schedule: Q01DX001 (ip), vehicle: Klucel (hydroxypropylcellulose) (HPC)
  survivor count: 3 of 6
dose: 100.0 mg/kg/injection, schedule: Q01DX001 (ip), vehicle: Klucel (hydroxypropylcellulose) (HPC)
  survivor count: 0 of 6
dose: 200.0 mg/kg/injection, schedule: Q01DX001 (ip), vehicle: Klucel (hydroxypropylcellulose) (HPC)
  survivor count: 0 of 6
dose: 400.0 mg/kg/injection, schedule: Q01DX001 (ip), vehicle: Klucel (hydroxypropylcellulose) (HPC)
  survivor count: 0 of 6

## O=c1cc(C(F)(F)F)[nH]c2ccccc12
[5]
  survivor count: 0 of 3 and 3 of 3
[6]
  survivor count: 0 of 3
[7]
  survivor count: 0 of 3

## Nc1ccccc1CSc1nc2nc[nH]c2c(=O)[nH]1
[8]
  survivor count: 3 of 6
[9]
  survivor count: 0 of 6
[10]
  survivor count: 0 of 6

## CC1=C(C#N)C2(CCN(C)CC2)C(C#N)=C(C)N1
dose: 150.0 mg/kg/injection, schedule: Q01DX001 (ip), vehicle: saline
  survivor count: 0 of 6
dose: 300.0 mg/kg/injection, schedule: Q01DX001 (ip), vehicle: carboxymethylcellulose (CMC)
  survivor count: 1 of 6
[11]
  survivor count: 0 of 6

## CCN(CC)CCNc1ccc(CO)c(Cl)c1
dose: 250.0 mg/kg/injection, schedule: Q01DX009 (ip), vehicle: Klucel (hydroxypropylcellulose) (HPC)
  survivor count: 0 of 6

## CCc1ccc(NC(=O)NC(C)C)cc1
[12]
  survivor count: 4 of 6

## COc1ccc(-n2cc3c(=O)nccc-3c3ccccc32)cc1OC
[11]
  survivor count: 0 of 6

## COC(=O)C(CSCSC)NC(=O)/C=C/c1ccc(C)cc1 (stereo not given)
[1]
  survivor count: 6 of 6

## COc1ccc(Cl)cc1NC(=O)Oc1ccccc1C(N)=O
dose: 50.0 mg/kg/injection, schedule: Q01DX009 (ip), vehicle: saline
  survivor count: 5 of 6
dose: 100.0 mg/kg/injection, schedule: Q01DX009 (ip), vehicle: saline
  survivor count: 6 of 6
[13]
  T/C: 93 and 98 % of control
  survivor count: 3 of 6 and 3 of 3
[3]
  survivor count: 0 of 3
dose: 200.0 mg/kg/injection, schedule: Q04DX002 (ip), vehicle: saline with Tween-80
  survivor count: 3 of 3
[1]
  survivor count: 6 of 6
[4]
  survivor count: 0 of 6
dose: 400.0 mg/kg/injection, schedule: Q01DX009 (ip), vehicle: saline with Tween-80
  survivor count: 0 of 3
dose: 400.0 mg/kg/injection, schedule: Q04DX002 (ip), vehicle: saline with Tween-80
  survivor count: 0 of 3 and 2 of 6
[2]
  survivor count: 3 of 6

## O=C(O)c1ccc2c(c1)Sc1ccccc1N2
[12]
  survivor count: 2 of 6

## O=C(O)C1C2CC3CC(C2)CC1C3 (stereo not given)
[7]
  T/C: 139 % of control

## O=C(Nc1ccccc1)Nc1cc(C(F)(F)F)ccc1Cl
[3]
  survivor count: 6 of 6

## CC(C)([NH-])CO.CC(C)([NH-])CO.[Cl][Cd][Cl]
dose: 20.0 mg/kg/injection, schedule: Q01DX009 (ip), vehicle: saline
  survivor count: 1 of 6
dose: 25.0 mg/kg/injection, schedule: Q04DX003 (ip), vehicle: saline sonified
  survivor count: 0 of 6
dose: 40.0 mg/kg/injection, schedule: Q04DX003 (ip), vehicle: alcohol
  survivor count: 1 of 6
dose: 100.0 mg/kg/injection, schedule: Q04DX003 (ip), vehicle: saline
  survivor count: 0 of 6
dose: 200.0 mg/kg/injection, schedule: Q04DX003 (ip), vehicle: saline
  survivor count: 0 of 6
dose: 400.0 mg/kg/injection, schedule: Q04DX003 (ip), vehicle: saline
  survivor count: 0 of 6

## NNC(=O)CNc1cccc(Cl)c1F
[5]
  survivor count: 2 of 3
[6]
  survivor count: 0 of 3
[7]
  survivor count: 0 of 3

## CN(N)P(=S)(c1ccccc1)N(C)N
dose: 50.0 mg/kg/injection, schedule: Q04DX003 (ip), vehicle: Klucel (hydroxypropylcellulose) (HPC)
  survivor count: 2 of 6
dose: 100.0 mg/kg/injection, schedule: Q04DX003 (ip), vehicle: Klucel (hydroxypropylcellulose) (HPC)
  survivor count: 2 of 6
dose: 200.0 mg/kg/injection, schedule: Q04DX003 (ip), vehicle: Klucel (hydroxypropylcellulose) (HPC)
  survivor count: 0 of 6
[12]
  survivor count: 0 of 6

## CCn1c2ccccc2c2cc(NC(=O)N(CCCl)N=O)ccc21
dose: 177.0 mg/kg/injection, schedule: Q01DX001 (ip), vehicle: carboxymethylcellulose (CMC)
  T/C: 130 % of control
dose: 266.0 mg/kg/injection, schedule: Q01DX001 (ip), vehicle: carboxymethylcellulose (CMC)
  T/C: 135 % of control
[14]
  T/C: 135 % of control
dose: 400.0 mg/kg/injection, schedule: Q01DX009 (ip), vehicle: carboxymethylcellulose (CMC)
  T/C: 137 % of control
dose: 600.0 mg/kg/injection, schedule: Q01DX001 (ip), vehicle: carboxymethylcellulose (CMC)
  T/C: 133 % of control
dose: 600.0 mg/kg/injection, schedule: Q01DX009 (ip), vehicle: carboxymethylcellulose (CMC)
  T/C: 127 % of control

## Cc1cc(=O)oc2cc(OC(=O)Nc3cccc(Cl)c3Cl)ccc12
[8]
  survivor count: 5 of 6
[9]
  survivor count: 6 of 6
[10]
  survivor count: 6 of 6

## CSC(=S)N(C)C
[9]
  survivor count: 0 of 6
[10]
  survivor count: 0 of 6
[12]
  survivor count: 2 of 6

## CSc1ncnc2c1ncn2-n1cccc1
[2]
  survivor count: 2 of 6

## CCN(CC)Cc1c(O)ccc2c3c(c(=O)oc12)CCCC3
dose: 100.0 mg/kg/injection, schedule: Q01DX001 (ip), vehicle: carboxymethylcellulose (CMC)
  survivor count: 2 of 4
dose: 200.0 mg/kg/injection, schedule: Q01DX001 (ip), vehicle: carboxymethylcellulose (CMC)
  survivor count: 1 of 4
[14]
  survivor count: 0 of 4
